Results are given in words; binding and its absence hold for the method and conditions named. In cells and extracts the contact can be indirect. Some binding calls cover weakened binding; strength is not graded here.
Experiments:
[1] = target: ATRX (endogenous, mouse brain and cortical neurons) (mouse (endogenous in mouse brain and cortical neurons)) (UniProt Q61687); experiment: co-IP; mouse whole-brain extracts, endogenous proteins (Figure S1I); details in the Supplemental Experimental Procedures
[2] = target: ATRX (endogenous, mouse brain and cortical neurons) (mouse (endogenous in mouse brain and cortical neurons)) (UniProt Q61687); experiment: co-IP; extracts of isolated mouse cortical neurons, endogenous proteins, untreated or treated with KCl (Figure S2J)

Chains of the proteins cited; added tags and fusions are not shown.
UniProt Q61687: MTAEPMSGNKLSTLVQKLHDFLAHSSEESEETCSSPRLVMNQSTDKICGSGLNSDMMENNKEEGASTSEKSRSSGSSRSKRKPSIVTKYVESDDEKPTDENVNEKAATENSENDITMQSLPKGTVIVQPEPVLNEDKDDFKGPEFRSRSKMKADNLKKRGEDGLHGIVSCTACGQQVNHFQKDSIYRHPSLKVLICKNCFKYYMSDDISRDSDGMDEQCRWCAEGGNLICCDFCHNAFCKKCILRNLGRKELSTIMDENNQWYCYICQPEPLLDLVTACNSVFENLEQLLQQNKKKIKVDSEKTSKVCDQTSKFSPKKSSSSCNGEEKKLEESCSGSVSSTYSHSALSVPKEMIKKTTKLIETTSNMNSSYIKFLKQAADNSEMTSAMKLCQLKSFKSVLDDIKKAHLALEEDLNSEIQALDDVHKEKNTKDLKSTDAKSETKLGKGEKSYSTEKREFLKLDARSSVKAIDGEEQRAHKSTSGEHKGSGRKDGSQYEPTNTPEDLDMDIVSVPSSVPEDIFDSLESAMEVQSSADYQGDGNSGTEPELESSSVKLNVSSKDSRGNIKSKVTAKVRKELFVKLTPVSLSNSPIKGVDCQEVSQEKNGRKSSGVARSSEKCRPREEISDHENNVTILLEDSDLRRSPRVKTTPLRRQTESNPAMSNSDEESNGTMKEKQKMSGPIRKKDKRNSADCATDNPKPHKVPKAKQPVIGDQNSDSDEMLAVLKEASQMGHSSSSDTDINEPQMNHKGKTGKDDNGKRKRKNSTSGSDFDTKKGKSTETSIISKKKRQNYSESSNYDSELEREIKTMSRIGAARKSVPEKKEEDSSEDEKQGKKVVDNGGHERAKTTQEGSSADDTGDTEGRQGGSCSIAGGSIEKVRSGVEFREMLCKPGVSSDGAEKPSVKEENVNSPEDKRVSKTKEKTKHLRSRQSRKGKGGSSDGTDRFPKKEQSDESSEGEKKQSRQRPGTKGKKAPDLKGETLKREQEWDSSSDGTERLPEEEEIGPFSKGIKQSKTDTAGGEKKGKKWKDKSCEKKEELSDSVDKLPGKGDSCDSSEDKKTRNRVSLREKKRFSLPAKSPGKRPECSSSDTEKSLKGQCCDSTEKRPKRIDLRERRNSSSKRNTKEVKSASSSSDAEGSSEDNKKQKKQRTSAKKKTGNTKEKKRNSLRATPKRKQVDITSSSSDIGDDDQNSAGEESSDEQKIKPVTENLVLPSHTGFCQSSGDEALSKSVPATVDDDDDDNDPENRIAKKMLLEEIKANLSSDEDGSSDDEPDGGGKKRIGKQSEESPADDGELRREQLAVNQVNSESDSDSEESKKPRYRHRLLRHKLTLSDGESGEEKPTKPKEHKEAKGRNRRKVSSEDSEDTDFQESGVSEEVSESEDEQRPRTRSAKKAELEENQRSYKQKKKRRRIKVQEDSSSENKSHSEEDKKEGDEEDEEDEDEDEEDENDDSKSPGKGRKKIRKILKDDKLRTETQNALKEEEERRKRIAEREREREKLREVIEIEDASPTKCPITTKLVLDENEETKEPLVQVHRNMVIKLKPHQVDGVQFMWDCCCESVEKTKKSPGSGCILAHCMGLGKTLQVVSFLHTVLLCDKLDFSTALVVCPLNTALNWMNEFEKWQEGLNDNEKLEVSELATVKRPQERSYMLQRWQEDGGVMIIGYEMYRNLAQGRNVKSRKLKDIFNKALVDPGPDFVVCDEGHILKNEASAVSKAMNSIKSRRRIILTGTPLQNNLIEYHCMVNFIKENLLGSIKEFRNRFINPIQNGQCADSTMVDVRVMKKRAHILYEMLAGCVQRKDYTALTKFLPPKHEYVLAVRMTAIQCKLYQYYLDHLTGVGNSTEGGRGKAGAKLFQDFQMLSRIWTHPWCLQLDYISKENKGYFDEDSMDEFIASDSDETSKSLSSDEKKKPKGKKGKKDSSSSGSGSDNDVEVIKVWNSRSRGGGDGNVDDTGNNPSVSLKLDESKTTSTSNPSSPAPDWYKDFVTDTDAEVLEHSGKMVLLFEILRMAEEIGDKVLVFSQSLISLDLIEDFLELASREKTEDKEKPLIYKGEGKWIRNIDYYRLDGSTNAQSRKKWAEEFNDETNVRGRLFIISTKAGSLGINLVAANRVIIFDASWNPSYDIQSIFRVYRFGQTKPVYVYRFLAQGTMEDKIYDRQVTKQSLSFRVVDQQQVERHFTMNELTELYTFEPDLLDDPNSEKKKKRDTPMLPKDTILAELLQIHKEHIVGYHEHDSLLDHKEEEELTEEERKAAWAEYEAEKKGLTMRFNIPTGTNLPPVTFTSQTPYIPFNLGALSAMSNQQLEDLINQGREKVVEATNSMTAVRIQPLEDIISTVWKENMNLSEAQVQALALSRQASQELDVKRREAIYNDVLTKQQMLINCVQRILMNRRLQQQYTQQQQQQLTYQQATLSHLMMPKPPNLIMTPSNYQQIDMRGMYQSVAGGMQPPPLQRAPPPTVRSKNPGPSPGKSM
UniProt O35613: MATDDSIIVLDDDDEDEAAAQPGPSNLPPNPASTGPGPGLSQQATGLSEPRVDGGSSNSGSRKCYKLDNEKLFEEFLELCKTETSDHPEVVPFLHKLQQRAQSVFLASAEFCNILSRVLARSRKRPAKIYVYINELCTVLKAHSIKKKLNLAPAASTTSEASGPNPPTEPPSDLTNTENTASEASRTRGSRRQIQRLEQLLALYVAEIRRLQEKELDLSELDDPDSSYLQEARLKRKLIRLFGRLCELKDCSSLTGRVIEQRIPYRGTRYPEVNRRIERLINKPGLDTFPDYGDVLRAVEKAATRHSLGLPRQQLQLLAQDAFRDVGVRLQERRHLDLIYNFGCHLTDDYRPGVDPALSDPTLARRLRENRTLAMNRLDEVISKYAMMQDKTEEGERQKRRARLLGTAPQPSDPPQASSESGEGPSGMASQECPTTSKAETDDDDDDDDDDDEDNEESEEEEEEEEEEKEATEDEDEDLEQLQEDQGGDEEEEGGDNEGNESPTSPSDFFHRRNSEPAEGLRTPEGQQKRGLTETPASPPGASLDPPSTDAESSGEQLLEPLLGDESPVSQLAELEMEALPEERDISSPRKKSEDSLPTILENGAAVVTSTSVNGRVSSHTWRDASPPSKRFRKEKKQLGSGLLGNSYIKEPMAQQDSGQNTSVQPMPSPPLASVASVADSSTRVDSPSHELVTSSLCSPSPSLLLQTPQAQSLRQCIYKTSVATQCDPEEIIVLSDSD

binding [1]: binds | binding [2]: binds
Substance: DAXX (endogenous, mouse brain and cortical neurons) (from UniProt O35613 1-739)

Source: paper PMC3657165
